Measured values taken from article PMC7217150, “Synthesis, Modification, and Biological Evaluation of a Library of Novel Water‐Soluble Thiopyridone‐Based Organometallic Complexes and Their Unexpected (Biological) Behavior” (Chemistry (Weinheim an Der Bergstrasse, Germany), 2020).

Test system: HCT‐116 (colon cancer) spheroids
Conditions: HCT‐116 spheroids, respective IC50 concentration, 96 h, LA‐ICP‐TOF‐MS

CC1=C2[O][Rh+]([Cl])[S]=C2C=CN1C.Cc1c(C)c(C)[c-](C)c1C [Compound 5 a, Chlorido[1,2‐dimethyl‐3‐oxo‐κO‐pyridine‐4(1H)‐thionato‐κS](η^5‐1,2,3,4,5‐pentamethylcyclopentadienyl)rhodium(III)]
metal distribution in spheroid sections: accumulated throughout the spheroid sections with higher concentrations at the outer cell layers

CC1=C2[O][Ir+]([Cl])[S]=C2C=CN1C.Cc1c(C)c(C)[c-](C)c1C [Compound 6 a, Chlorido[1,2‐dimethyl‐3‐oxo‐κO‐pyridine‐4(1H)‐thionato‐κS](η^5‐1,2,3,4,5‐pentamethylcyclopentadienyl)iridium(III)]
metal distribution in spheroid sections: enrichment at the outer rim of the tumor spheroid section
